Results from article PMC4253439.
These are yes or no findings as the source states them, for the method shown. In cells and extracts the contact can be indirect. Some results given as binding are weak or reduced against the parent protein; the word gives no strength.

Chains of the proteins cited; added tags and fusions are not shown.
UniProt P08047: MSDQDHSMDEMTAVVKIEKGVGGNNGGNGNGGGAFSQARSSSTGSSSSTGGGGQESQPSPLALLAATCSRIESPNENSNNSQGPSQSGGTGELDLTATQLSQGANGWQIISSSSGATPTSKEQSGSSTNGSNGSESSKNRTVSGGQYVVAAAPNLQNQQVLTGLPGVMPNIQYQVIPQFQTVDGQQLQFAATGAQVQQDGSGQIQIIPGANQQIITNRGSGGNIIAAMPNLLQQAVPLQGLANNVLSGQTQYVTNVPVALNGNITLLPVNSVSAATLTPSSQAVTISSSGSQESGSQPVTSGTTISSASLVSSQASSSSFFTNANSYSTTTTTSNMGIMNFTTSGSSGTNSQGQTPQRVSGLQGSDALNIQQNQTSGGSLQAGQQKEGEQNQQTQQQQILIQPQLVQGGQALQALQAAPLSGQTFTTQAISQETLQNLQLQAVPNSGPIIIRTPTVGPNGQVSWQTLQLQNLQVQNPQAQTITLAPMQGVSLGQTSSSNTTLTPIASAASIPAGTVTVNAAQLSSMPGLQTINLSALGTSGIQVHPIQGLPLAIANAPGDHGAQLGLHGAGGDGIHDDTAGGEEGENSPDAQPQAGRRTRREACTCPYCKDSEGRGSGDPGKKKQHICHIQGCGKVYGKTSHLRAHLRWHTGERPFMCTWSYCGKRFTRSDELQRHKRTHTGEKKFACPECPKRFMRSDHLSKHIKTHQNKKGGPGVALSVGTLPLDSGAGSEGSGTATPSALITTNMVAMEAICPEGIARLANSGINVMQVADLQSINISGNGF
UniProt Q92793: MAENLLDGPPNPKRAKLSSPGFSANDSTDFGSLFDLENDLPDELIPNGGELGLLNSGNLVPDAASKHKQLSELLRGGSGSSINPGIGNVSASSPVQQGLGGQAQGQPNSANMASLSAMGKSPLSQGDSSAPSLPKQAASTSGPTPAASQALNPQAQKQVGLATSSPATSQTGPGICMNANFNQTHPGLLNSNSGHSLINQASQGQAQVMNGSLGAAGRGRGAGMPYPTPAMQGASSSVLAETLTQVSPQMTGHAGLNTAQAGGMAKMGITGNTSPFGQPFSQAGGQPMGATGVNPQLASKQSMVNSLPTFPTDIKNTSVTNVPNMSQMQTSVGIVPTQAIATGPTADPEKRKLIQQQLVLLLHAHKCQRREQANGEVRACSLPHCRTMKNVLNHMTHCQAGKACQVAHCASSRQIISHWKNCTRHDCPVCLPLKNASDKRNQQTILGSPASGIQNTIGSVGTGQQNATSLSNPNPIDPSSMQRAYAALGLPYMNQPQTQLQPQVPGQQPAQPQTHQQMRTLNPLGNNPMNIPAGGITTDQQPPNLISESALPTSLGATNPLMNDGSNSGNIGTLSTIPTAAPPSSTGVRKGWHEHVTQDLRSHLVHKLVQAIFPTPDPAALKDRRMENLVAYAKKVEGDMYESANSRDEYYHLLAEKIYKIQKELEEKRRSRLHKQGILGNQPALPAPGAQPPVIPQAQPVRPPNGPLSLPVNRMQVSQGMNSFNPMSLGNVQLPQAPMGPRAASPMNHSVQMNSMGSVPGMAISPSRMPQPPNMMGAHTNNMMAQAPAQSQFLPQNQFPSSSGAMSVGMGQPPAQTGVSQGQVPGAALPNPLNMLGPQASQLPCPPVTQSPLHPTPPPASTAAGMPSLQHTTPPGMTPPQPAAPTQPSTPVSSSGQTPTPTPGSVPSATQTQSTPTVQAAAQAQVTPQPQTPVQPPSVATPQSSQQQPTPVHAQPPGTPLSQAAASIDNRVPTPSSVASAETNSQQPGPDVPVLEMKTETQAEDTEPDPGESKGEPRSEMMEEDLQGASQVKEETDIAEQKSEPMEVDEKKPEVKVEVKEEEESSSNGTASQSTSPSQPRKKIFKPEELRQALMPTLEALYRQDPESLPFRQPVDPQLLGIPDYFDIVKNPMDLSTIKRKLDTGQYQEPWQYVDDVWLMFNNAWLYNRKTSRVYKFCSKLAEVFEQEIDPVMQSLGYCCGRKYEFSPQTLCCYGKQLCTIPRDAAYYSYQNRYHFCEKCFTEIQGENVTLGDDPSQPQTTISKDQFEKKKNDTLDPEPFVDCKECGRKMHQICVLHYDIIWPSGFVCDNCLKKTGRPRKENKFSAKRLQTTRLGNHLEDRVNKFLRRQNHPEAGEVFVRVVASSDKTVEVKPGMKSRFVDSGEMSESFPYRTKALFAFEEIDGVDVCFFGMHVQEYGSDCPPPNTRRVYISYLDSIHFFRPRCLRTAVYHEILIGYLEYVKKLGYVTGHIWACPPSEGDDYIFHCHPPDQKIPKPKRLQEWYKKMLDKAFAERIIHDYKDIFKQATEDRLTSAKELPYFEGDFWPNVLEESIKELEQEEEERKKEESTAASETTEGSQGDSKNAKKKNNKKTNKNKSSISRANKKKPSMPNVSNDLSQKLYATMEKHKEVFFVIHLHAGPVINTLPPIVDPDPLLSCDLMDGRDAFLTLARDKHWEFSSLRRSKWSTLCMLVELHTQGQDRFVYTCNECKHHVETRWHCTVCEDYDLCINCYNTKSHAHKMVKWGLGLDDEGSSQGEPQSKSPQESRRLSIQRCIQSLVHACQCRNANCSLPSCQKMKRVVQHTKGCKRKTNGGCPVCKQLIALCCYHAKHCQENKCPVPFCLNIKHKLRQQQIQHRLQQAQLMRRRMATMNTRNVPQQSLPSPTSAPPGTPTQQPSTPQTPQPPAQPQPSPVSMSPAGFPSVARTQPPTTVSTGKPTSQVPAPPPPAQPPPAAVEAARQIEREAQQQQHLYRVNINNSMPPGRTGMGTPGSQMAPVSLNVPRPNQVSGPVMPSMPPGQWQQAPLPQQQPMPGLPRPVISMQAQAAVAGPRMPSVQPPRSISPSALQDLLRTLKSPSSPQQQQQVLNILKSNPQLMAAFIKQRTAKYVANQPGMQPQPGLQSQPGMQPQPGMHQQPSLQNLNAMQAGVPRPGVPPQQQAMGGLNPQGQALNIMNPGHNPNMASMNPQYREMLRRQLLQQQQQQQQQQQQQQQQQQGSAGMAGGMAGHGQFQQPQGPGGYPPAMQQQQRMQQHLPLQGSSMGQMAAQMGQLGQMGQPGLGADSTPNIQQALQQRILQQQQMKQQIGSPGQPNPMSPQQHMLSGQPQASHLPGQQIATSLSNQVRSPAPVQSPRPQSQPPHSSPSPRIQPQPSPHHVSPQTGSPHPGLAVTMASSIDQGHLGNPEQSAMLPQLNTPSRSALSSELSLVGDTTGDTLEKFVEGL

Molecular target: specificity protein 1 (Sp1) (human (endogenous in HLF, HBE, H1299, A549)) (UniProt P08047)
Assay: co-IP; nuclear extracts of HLF, HBE, H1299 and A549 cells incubated with an antibody against Sp1 or AP-2β for 24 h at 4°C, protein-A/G agarose beads 12 h at 4°C, washed with cold PBS; immunoblot for CBP

“CREB-binding protein (CBP) (from UniProt Q92793 1-2442)” was tested, and the binding was “binds”.
